In the supplement of paper PMC10849652:
Some of the results follow.

Chains of the proteins cited; added tags and fusions are not shown. Lines headed by an entry give the natural chain unless they say otherwise; changes in a name come on top.
UniProt A4D0V7: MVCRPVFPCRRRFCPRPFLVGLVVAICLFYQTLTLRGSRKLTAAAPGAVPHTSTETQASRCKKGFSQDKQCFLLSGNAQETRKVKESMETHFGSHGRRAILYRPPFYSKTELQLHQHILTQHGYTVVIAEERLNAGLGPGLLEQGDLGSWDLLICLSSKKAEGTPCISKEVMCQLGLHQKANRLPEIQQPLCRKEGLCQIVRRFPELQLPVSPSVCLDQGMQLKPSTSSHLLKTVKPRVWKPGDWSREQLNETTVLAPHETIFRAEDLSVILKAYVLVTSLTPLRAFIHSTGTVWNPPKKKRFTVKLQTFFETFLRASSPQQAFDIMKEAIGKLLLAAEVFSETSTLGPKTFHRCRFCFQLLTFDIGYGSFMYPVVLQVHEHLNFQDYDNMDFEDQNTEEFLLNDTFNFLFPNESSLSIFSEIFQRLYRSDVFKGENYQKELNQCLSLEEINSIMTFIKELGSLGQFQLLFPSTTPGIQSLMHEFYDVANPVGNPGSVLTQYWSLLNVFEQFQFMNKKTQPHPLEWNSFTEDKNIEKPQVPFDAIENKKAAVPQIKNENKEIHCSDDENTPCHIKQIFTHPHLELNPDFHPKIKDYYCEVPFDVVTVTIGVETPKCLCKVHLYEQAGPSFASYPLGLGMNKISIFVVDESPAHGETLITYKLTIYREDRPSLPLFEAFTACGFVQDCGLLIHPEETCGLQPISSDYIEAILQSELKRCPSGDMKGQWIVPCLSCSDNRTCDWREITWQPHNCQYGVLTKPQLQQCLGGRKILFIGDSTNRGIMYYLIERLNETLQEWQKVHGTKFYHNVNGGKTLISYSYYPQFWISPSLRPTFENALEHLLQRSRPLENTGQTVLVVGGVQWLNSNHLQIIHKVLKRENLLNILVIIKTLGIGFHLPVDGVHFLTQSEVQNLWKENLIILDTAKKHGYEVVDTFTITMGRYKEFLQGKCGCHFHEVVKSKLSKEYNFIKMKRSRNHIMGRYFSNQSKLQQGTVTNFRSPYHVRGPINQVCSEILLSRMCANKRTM
UniProt Q8NE01: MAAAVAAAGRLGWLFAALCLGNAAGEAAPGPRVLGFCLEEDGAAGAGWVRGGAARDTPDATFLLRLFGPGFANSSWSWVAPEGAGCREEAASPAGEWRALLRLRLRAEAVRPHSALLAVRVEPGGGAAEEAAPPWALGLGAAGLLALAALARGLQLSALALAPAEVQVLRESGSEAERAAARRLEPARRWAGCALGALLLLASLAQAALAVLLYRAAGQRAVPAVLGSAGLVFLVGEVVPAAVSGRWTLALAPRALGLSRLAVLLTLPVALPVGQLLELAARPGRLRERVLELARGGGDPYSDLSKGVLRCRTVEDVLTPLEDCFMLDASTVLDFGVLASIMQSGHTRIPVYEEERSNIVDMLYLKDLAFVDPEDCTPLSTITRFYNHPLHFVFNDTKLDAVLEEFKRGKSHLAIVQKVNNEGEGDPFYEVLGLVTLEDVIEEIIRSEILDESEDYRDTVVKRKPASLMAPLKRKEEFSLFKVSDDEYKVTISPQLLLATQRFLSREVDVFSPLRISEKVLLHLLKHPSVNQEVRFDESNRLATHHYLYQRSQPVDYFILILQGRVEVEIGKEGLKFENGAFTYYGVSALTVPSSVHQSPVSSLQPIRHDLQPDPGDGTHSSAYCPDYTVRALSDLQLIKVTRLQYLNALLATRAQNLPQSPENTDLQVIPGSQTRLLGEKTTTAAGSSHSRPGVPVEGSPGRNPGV
UniProt O14548: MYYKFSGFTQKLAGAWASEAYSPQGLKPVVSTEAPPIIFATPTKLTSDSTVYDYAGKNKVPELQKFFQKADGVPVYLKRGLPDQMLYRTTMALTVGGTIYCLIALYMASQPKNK
UniProt P31327: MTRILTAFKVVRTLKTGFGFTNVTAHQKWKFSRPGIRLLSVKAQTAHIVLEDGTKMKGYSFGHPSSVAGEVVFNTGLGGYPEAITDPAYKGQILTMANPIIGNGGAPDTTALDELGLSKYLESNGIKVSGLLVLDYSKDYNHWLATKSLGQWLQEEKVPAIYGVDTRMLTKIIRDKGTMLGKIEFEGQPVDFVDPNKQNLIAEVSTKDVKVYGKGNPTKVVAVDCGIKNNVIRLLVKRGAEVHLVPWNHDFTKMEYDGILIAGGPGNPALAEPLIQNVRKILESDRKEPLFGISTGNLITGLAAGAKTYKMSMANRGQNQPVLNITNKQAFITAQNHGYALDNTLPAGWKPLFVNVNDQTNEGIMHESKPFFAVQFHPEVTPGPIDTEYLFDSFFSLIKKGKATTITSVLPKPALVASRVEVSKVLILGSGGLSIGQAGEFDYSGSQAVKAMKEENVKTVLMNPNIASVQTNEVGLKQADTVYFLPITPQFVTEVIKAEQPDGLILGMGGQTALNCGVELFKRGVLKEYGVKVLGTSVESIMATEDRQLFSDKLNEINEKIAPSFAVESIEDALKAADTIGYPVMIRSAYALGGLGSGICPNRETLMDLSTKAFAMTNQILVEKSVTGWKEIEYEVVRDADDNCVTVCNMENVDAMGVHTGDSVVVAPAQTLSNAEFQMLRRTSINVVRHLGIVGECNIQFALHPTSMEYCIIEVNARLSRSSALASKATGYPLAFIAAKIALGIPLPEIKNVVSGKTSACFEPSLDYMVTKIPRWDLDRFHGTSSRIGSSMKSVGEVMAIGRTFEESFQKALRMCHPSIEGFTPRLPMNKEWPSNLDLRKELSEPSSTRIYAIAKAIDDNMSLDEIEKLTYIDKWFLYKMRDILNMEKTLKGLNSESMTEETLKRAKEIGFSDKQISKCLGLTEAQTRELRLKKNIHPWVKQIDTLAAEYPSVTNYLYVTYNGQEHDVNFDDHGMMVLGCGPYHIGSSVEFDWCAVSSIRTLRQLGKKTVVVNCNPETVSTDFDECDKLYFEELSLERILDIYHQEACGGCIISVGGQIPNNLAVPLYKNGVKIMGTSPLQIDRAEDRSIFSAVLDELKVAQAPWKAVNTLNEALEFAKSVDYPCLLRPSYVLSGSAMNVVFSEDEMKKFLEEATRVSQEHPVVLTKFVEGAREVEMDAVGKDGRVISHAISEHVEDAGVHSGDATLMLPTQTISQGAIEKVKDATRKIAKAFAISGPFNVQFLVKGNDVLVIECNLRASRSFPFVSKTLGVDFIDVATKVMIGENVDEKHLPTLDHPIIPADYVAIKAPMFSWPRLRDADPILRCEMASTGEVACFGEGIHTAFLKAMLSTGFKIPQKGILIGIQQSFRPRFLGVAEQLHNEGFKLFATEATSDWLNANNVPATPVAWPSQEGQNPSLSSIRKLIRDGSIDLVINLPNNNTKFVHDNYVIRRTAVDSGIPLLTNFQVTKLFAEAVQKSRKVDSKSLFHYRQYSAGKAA
UniProt P53618: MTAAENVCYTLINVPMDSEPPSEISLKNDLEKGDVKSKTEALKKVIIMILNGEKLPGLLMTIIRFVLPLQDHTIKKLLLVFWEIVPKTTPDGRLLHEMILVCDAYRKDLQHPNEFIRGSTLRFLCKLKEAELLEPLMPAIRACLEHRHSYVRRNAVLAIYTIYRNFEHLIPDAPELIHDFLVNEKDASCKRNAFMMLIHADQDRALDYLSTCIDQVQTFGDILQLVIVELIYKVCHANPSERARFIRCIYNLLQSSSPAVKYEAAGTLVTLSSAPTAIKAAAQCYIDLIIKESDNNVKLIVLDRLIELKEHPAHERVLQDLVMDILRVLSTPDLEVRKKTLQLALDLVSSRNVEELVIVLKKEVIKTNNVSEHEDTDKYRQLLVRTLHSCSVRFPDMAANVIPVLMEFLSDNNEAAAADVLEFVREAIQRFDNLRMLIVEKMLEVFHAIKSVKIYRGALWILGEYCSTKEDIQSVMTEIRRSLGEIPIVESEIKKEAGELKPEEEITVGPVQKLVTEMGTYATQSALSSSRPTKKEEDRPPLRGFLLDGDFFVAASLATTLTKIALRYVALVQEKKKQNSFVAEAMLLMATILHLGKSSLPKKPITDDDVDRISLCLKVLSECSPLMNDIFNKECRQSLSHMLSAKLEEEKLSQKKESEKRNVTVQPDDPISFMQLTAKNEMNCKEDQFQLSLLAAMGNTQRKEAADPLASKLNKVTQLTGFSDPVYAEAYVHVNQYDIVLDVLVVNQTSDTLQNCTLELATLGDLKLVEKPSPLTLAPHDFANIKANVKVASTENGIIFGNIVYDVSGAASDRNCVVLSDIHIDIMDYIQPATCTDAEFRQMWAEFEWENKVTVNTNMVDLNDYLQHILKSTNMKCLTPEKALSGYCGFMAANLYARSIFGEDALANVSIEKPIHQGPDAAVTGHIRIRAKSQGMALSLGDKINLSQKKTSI
UniProt Q9UNS2: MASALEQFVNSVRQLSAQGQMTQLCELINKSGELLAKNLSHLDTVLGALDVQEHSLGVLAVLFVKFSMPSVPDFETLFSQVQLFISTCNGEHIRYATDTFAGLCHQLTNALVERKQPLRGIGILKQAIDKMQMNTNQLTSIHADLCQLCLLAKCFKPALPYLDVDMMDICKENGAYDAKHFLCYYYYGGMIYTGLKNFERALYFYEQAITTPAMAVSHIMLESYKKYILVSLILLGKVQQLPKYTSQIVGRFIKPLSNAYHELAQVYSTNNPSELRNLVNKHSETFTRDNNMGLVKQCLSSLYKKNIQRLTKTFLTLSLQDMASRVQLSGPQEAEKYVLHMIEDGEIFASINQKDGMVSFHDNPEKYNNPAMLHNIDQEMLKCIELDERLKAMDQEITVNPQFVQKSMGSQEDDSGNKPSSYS
UniProt P53621: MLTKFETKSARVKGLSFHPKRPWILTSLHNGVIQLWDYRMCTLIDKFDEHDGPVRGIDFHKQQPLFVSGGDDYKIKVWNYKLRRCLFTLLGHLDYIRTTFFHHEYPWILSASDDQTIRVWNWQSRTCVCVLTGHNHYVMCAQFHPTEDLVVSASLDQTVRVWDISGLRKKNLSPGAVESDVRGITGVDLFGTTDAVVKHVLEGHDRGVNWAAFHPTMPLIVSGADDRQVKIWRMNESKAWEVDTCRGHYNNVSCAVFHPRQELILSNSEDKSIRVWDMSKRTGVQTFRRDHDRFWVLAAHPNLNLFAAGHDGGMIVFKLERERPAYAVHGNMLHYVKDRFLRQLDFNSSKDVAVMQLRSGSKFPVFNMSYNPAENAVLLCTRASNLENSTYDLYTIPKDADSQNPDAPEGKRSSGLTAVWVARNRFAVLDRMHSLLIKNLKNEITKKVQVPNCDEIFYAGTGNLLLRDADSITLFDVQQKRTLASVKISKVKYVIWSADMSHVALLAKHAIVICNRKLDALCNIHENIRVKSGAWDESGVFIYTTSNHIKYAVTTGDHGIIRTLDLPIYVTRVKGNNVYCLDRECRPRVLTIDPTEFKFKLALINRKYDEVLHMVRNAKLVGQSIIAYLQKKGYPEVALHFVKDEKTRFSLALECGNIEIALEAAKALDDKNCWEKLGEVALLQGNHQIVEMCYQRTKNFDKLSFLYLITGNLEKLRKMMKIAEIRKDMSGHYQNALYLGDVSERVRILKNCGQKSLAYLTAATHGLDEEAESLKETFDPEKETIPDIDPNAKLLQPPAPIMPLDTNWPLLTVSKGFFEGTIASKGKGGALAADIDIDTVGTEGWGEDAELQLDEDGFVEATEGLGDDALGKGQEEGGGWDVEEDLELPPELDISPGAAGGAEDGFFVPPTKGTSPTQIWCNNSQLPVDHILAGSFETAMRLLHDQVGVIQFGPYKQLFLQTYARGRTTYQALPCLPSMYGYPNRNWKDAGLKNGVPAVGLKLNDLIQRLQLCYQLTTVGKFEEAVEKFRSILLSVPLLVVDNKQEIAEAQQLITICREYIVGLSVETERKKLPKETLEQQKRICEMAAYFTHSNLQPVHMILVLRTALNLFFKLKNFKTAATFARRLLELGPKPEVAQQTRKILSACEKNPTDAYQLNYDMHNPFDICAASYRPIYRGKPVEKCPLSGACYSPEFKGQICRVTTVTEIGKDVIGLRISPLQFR
UniProt Q9Y2Z9: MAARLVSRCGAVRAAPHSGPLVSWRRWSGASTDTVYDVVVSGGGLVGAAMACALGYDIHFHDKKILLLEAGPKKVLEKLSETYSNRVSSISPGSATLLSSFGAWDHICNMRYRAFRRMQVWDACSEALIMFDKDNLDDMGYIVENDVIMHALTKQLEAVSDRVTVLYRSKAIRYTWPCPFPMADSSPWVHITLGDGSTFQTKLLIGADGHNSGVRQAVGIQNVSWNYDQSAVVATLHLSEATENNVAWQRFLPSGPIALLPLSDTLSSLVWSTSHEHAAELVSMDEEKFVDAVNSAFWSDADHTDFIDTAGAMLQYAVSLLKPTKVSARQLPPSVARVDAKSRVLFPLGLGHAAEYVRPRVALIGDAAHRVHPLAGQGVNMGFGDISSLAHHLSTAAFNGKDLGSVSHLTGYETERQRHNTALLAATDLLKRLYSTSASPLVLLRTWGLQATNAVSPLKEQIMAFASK
UniProt P61923: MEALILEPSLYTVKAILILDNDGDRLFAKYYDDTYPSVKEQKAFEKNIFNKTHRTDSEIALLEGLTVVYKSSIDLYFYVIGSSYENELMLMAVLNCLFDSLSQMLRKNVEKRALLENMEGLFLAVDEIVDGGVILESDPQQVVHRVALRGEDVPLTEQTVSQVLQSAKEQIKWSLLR

Columns and labels:
Assay in all cases: log2 fold change, soluble protein after heating vs DMSO (PISA); higher = thermal stabilisation; K562 lysate, 10 uM; active = over 0.2 and 3.5 SD of the protein, either way, in both replicates (recomputed)
[1] = compound: C#Cc1cccc(Nc2ncnc3cc(OCCOC)c(OCCOC)cc23)c1 [erlotinib]
How it was run: (§1)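 Pellets of K562 cells were dounce-homogenised in PBS pH 7.4 with 1 mM MgCl2, and the crude extract was held at 1 mg/mL protein for a 30 min treatment with 10 μM compound. Aliquots were heated for 3 min over 48°C-58°C and pooled before NP-40 was added to 0.5% at 4°C. The supernatant from 21,000xg for 90 min was quantified by TMTpro 16plex LC-MS/MS with channel sums equalised. Values are reported from duplicates as log-two fold change in thermal stability relative to solvent controls.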

[2] = compound: C/C(=N\NC(=O)C1=CC(=CC=C1)S(=O)(=O)N2CCOCC2)/C3=C(C=CC(=C3)Cl)O
How it was run: as §1

[3] = compound: C1=CC(=CC=C1C2=NC3=C(N2)C=C(C=C3)C(=O)N)OC4=CC=C(C=C4)Cl
How it was run: as §1

[4] = compound: C1=CC2=C(C=CC(=C2)/C=C\3/C(=O)NC(=NCC4=CC=CS4)S3)N=C1
How it was run: as §1

[5] = compound: C1=CC2=NC=CN=C2C=C1/C=C/3\C(=O)NC(=O)S3
How it was run: as §1

[6] = compound: C1=CC=C(C=C1)C2=NC(=C(N2)C3=CC=NC=C3)C4=CC(=C(C=C4)Cl)O
How it was run: as §1

[7] = compound: C1=CC=C2C(=C1)C3=NNC4=CC=CC(=C43)C2=O
How it was run: as §1

[8] = compound: C1CCN(C1)C(=O)NC2=CC=CC(=C2)NC3=NC=C(C(=N3)NCCC4=CN=CN4)Br
How it was run: as §1

[9] = compound: C1CN(CCC1(CC2=CC=C(C=C2)Cl)N)C3=NC=NC4=C3C=CN4
How it was run: as §1

[10] = compound: C1COCCN1CCN2C3=CC=CC=C3N=C2NC(=O)C4=CC(=CC=C4)[N+](=O)[O-] [IRAK-1-4 Inhibitor I]
How it was run: as §1

[11] = compound: C=CC(=O)N1CCC[C@@H](n2nc(-c3ccc(Oc4ccccc4)cc3)c3c(N)ncnc32)C1 [ibrutinib]
How it was run: as §1

[12] = compound: CC(=O)c1cnc2ccc(-c3cc(Cl)c(O)c(Cl)c3)nc2c1N[C@H]1CC[C@H](CN(C)C)CC1
How it was run: as §1

[13] = compound: CC(C)(C)Cn1c(N)nc2ccc(-c3[nH]c(C(C)(C)C)nc3-c3ccc(F)cc3)nc21 [ralimetinib]
How it was run: as §1

[14] = compound: CC(C)(O)CC(=O)NCCn1ccc2ncnc(Nc3ccc(Oc4cccc(C(F)(F)F)c4)c(Cl)c3)c21
How it was run: as §1

[15] = compound: CC(C)C1=C2N=C(C=C(N2N=C1)NCC3=CC=CC=C3)NCCCCCCN
How it was run: as §1

[16] = compound: CC1=C(C(CC(=O)N1)C2=CC=C(C=C2)C(F)(F)F)C(=O)NC3=C(C=C4C(=C3)C=NN4)F
How it was run: as §1

[17] = compound: CC1=C(C2=C(C=C1)C(=O)C3=CC=CC=C3N2CCCN)C
How it was run: as §1

[18] = compound: CC1=C(C=C(C=C1)NC(=O)C2=CC(=CC=C2)C(C)(C)C#N)NC3=CC4=C(C=C3)N=CN(C4=O)C
How it was run: as §1

[19] = compound: CC1=C(C=C(C=C1)NC(=O)C2=CC(=CC=C2)N(C)C)NC(=O)C3=CC=C(C=C3)O
How it was run: as §1

[20] = compound: CC1=CC=C(C=C1)SC2=C3C=C(SC3=CN=C2)C(=O)N
How it was run: as §1

Target	log2 fold change [1]	log2 fold change [2]	log2 fold change [3]	log2 fold change [4]	log2 fold change [5]	log2 fold change [6]	log2 fold change [7]	log2 fold change [8]	log2 fold change [9]	log2 fold change [10]	log2 fold change [11]	log2 fold change [12]	log2 fold change [13]	log2 fold change [14]	log2 fold change [15]	log2 fold change [16]	log2 fold change [17]	log2 fold change [18]	log2 fold change [19]	log2 fold change [20]
CPED1 (UniProt A4D0V7)	inactive: -0.02	inactive: -0.15	inactive: -0.035	inactive: 0.009	inactive: -0.058	inactive: -0.014	inactive: -0.011	inactive: 0.002	inactive: -0.009	inactive: 0.045	inactive: 0.04	inactive: -0.054	inactive: -0.031	inactive: 0.006	inactive: 0.064	inactive: 0.055	inactive: 0.01	inactive: -0.016	inactive: -0.026	inactive: 0.006
CNNM3 (UniProt Q8NE01)	inactive: -0.001	inactive: 0.054	inactive: -0.012	inactive: -0.002	inactive: -0.002	inactive: -0.04	inactive: 0.009	inactive: -0.044	inactive: 0.041	inactive: -0.001	inactive: -0.017	inactive: 0.003	inactive: 0.021	inactive: -0.056	inactive: -0.017	inactive: -0.001	inactive: -0.032	inactive: 0.039	inactive: -0.01	inactive: 0.037
COPE (UniProt O14579)	inactive: 0.045	inactive: 0.11	inactive: 0.018	inactive: 0.056	inactive: 0.029	inactive: -0.012	inactive: -0.005	inactive: -0.005	inactive: 0.03	inactive: 0.023	inactive: 0.041	inactive: -0.011	inactive: 0.027	inactive: -0.027	inactive: -0.001	inactive: -0.035	inactive: -0.005	inactive: 0.046	inactive: 0.001	inactive: 0.009
COPS2 isoform 2 (UniProt P61201)	inactive: -0.042	inactive: 0.037	inactive: -0.002	inactive: 0.002	inactive: 0.001	inactive: -0.006	inactive: 0.017	inactive: 0.034	inactive: 0.006	inactive: -0.006	inactive: -0.015	inactive: -0.016	inactive: 0.012	inactive: 0.014	inactive: -0.019	inactive: -0.011	inactive: 0	inactive: -0.024	inactive: 0.007	inactive: 0.02
COX7A2L (UniProt O14548)	inactive: -0.008	inactive: -0.024	inactive: -0.009	inactive: 0.082	inactive: 0.024	inactive: 0.017	inactive: 0.011	inactive: -0.05	inactive: 0.012	inactive: -0.007	inactive: 0.098	inactive: -0.036	inactive: 0.003	inactive: -0.069	inactive: -0.056	inactive: -0.043	inactive: 0.009	inactive: 0.104	inactive: 0.021	inactive: 0.021
CPS1 isoform 3 (UniProt P31327)	inactive: -0.015	inactive: -0.082	inactive: -0.12	inactive: 0.005	inactive: 0.023	inactive: 0.011	inactive: 0.041	inactive: 0.022	inactive: 0.071	inactive: 0.032	inactive: -0.014	inactive: -0.056	inactive: -0.002	inactive: 0.04	inactive: 0.064	inactive: -0.015	inactive: -0.038	inactive: 0.05	inactive: -0.079	inactive: -0.143
CORO1A (UniProt P31146)	inactive: 0.077	inactive: 0.086	inactive: -0.032	inactive: 0.036	inactive: -0.022	inactive: 0.005	inactive: 0.009	inactive: 0.155	inactive: -0.031	inactive: 0.021	inactive: 0.028	inactive: -0.031	inactive: -0.015	inactive: -0.021	inactive: 0.055	inactive: 0.018	inactive: -0.107	inactive: 0.025	inactive: -0.036	inactive: 0.012
COPB1 (UniProt P53618)	inactive: -0.004	inactive: -0.026	inactive: -0.003	inactive: -0.009	inactive: 0.009	inactive: -0.016	inactive: 0	inactive: -0.046	inactive: -0.003	inactive: -0.002	inactive: -0.013	inactive: -0.013	inactive: 0.01	inactive: -0.007	inactive: -0.012	inactive: -0.016	inactive: -0.011	inactive: 0.026	inactive: 0.009	inactive: -0.004
CPQ (UniProt Q9Y646)	inactive: -0.048	inactive: -0.29	inactive: -0.006	inactive: 0.011	inactive: 0.018	inactive: 0.017	inactive: 0.053	inactive: 0.014	inactive: -0.015	inactive: 0.026	inactive: 0.046	inactive: -0.028	inactive: -0.004	inactive: -0.031	inactive: -0.026	inactive: 0.065	inactive: -0.024	inactive: 0.006	inactive: -0.07	inactive: 0.008
COG3 (UniProt Q96JB2)	inactive: 0.045	inactive: 0.053	inactive: -0.037	inactive: -0.049	inactive: -0.008	inactive: -0.022	inactive: -0.056	inactive: -0.02	inactive: -0.01	inactive: 0.012	inactive: 0.026	inactive: -0.008	inactive: 0.052	inactive: -0.042	inactive: -0.04	inactive: 0.006	inactive: -0.019	inactive: 0.02	inactive: 0.044	inactive: 0.02
COPS3 (UniProt Q9UNS2)	inactive: 0.007	inactive: -0.005	inactive: 0.01	inactive: -0.011	inactive: -0.027	inactive: 0.002	inactive: -0.004	inactive: -0.027	inactive: 0.026	inactive: 0.009	inactive: 0.004	inactive: -0.017	inactive: -0.018	inactive: -0.026	inactive: 0.001	inactive: -0.005	inactive: 0.005	inactive: 0.058	inactive: -0.003	inactive: -0.004
COPA isoform 2 (UniProt P53621)	inactive: -0.007	inactive: 0.019	inactive: 0.012	inactive: -0.002	inactive: -0.004	inactive: -0.001	inactive: -0.008	inactive: -0.027	inactive: -0.006	inactive: 0.014	inactive: -0.012	inactive: -0.011	inactive: 0.011	inactive: -0.01	inactive: -0.015	inactive: -0.006	inactive: -0.011	inactive: 0.004	inactive: 0.002	inactive: 0.018
COL15A1 (UniProt P39059)	inactive: 0.001	inactive: -0.179	inactive: 0.009	inactive: 0.042	inactive: 0.001	inactive: -0.073	inactive: -0.035	inactive: -0.073	inactive: -0.058	inactive: 0.043	inactive: -0.032	inactive: 0.026	inactive: -0.021	inactive: -0.035	inactive: 0.049	inactive: 0.136	inactive: 0.052	inactive: 0.007	inactive: 0.063	inactive: -0.019
COQ6 (UniProt Q9Y2Z9)	inactive: -0.009	inactive: -0.165	inactive: 0.045	inactive: 0.017	inactive: -0.033	inactive: 0.01	inactive: 0.013	inactive: 0.066	inactive: 0.05	inactive: 0.002	inactive: 0.041	inactive: -0.012	inactive: 0.006	inactive: -0.135	inactive: -0.025	inactive: 0.082	inactive: 0.034	inactive: 0.036	inactive: 0.022	inactive: 0.005
COPZ1 isoform 4 (UniProt P61923)	inactive: -0.029	inactive: 0.065	inactive: -0.05	inactive: -0.036	inactive: -0.142	inactive: -0.006	inactive: 0	inactive: -0.08	inactive: -0.028	inactive: -0.015	inactive: 0.123	inactive: 0.007	inactive: 0	inactive: 0.013	inactive: 0.02	inactive: -0.054	inactive: 0.037	inactive: 0.03	inactive: -0.012	inactive: 0.117
CRABP2 (UniProt P29373)	inactive: 0.026	inactive: -0.112	inactive: -0.017	inactive: -0.063	inactive: 0.2	inactive: -0.042	inactive: -0.151	active: 0.399	inactive: 0.309	inactive: -0.024	inactive: -0.039	inactive: 0.061	inactive: 0.097	inactive: -0.015	inactive: -0.002	inactive: 0.176	inactive: -0.088	inactive: -0.028	inactive: 0.082	inactive: -0.03

Quoted at random: two records from the list.
Target	log2 fold change [1]	log2 fold change [2]	log2 fold change [3]	log2 fold change [4]	log2 fold change [5]	log2 fold change [6]	log2 fold change [7]	log2 fold change [8]	log2 fold change [9]	log2 fold change [10]	log2 fold change [11]	log2 fold change [12]	log2 fold change [13]	log2 fold change [14]	log2 fold change [15]	log2 fold change [16]	log2 fold change [17]	log2 fold change [18]	log2 fold change [19]	log2 fold change [20]
COL15A1 (UniProt P39059)	inactive: 0.001	inactive: -0.179	inactive: 0.009	inactive: 0.042	inactive: 0.001	inactive: -0.073	inactive: -0.035	inactive: -0.073	inactive: -0.058	inactive: 0.043	inactive: -0.032	inactive: 0.026	inactive: -0.021	inactive: -0.035	inactive: 0.049	inactive: 0.136	inactive: 0.052	inactive: 0.007	inactive: 0.063	inactive: -0.019
COPA isoform 2 (UniProt P53621)	inactive: -0.007	inactive: 0.019	inactive: 0.012	inactive: -0.002	inactive: -0.004	inactive: -0.001	inactive: -0.008	inactive: -0.027	inactive: -0.006	inactive: 0.014	inactive: -0.012	inactive: -0.011	inactive: 0.011	inactive: -0.01	inactive: -0.015	inactive: -0.006	inactive: -0.011	inactive: 0.004	inactive: 0.002	inactive: 0.018
